Experimental data published in the supplement of paper PMC12819154, “High-throughput peptide-centric local stability assay extends protein–ligand identification to membrane proteins, tissues and bacteria” (Nature Structural & Molecular Biology, 2025).
This is one part of the list. Most values lie at the level of the controls, where differences are scatter.

By UniProt entry, the sequences of proteins in these tests, tags left out. Where a name states a change or a piece, a line headed by the entry shows the natural chain unless it says otherwise.
UniProt Q8BH86: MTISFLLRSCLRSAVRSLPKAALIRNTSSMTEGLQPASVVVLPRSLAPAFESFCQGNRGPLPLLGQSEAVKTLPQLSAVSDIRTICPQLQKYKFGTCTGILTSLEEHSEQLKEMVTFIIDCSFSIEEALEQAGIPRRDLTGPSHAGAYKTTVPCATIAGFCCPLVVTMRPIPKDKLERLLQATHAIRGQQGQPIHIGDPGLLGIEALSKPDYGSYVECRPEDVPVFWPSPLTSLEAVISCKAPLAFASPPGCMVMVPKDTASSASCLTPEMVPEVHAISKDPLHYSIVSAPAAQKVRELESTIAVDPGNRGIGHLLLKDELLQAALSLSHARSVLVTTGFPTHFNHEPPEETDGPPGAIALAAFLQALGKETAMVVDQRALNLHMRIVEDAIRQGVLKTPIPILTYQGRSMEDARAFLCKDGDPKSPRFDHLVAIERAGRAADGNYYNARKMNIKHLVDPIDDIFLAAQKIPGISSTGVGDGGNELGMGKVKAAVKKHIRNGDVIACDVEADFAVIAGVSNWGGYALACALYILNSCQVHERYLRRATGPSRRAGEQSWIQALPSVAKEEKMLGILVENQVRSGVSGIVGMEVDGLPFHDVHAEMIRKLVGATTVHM
UniProt Q8BWU8: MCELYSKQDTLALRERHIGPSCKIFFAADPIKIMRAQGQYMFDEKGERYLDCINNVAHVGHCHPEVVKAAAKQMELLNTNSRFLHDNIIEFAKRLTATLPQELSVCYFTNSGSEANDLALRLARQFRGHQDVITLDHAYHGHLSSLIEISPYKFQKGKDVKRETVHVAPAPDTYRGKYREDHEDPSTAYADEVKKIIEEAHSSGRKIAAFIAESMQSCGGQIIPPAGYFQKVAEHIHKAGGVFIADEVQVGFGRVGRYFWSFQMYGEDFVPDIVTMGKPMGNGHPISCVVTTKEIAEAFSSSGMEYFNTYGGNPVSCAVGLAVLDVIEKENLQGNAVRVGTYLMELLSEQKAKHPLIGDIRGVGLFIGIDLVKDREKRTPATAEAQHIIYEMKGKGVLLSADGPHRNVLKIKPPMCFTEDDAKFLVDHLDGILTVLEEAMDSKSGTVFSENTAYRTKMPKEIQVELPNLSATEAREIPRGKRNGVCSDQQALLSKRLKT
UniProt Q8BH51: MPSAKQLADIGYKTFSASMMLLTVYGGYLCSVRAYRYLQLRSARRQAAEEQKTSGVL
UniProt Q8BXN7: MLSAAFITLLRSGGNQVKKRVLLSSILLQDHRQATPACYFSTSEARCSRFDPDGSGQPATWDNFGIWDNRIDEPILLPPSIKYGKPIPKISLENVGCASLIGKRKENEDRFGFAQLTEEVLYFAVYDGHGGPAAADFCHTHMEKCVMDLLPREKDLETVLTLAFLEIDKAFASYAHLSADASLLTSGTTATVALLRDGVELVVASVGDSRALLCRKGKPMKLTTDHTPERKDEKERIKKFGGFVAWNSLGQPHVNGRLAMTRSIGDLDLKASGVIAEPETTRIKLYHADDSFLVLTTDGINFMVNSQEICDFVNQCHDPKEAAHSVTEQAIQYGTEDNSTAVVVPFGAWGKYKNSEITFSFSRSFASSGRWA
UniProt Q8BZ09: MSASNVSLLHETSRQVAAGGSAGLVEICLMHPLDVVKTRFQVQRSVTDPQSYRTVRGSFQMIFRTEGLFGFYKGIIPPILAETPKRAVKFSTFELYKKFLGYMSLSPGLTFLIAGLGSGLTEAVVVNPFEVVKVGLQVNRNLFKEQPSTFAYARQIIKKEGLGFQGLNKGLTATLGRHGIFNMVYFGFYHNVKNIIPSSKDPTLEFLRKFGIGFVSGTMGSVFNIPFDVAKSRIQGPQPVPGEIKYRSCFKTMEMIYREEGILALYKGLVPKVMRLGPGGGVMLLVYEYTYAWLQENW
UniProt Q8BMS1: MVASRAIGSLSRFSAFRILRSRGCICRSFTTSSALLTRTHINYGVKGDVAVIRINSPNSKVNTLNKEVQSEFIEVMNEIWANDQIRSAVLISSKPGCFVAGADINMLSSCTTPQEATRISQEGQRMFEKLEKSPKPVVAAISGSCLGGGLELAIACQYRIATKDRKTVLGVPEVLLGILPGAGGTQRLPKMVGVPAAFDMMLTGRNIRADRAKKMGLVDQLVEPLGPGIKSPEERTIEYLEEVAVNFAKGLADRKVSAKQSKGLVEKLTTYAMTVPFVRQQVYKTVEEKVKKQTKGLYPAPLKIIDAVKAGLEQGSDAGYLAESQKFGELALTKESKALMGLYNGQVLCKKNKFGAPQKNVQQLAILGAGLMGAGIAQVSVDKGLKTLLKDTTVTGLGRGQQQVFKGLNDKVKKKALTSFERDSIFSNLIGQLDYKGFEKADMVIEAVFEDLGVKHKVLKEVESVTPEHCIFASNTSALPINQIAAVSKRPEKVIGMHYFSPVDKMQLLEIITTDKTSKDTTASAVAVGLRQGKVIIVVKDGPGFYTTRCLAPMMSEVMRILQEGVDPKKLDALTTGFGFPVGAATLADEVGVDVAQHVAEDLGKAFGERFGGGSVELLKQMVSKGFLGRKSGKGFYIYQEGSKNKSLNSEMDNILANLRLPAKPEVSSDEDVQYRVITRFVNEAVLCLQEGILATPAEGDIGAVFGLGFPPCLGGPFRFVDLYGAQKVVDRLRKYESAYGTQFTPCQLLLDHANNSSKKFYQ
UniProt Q8BH57: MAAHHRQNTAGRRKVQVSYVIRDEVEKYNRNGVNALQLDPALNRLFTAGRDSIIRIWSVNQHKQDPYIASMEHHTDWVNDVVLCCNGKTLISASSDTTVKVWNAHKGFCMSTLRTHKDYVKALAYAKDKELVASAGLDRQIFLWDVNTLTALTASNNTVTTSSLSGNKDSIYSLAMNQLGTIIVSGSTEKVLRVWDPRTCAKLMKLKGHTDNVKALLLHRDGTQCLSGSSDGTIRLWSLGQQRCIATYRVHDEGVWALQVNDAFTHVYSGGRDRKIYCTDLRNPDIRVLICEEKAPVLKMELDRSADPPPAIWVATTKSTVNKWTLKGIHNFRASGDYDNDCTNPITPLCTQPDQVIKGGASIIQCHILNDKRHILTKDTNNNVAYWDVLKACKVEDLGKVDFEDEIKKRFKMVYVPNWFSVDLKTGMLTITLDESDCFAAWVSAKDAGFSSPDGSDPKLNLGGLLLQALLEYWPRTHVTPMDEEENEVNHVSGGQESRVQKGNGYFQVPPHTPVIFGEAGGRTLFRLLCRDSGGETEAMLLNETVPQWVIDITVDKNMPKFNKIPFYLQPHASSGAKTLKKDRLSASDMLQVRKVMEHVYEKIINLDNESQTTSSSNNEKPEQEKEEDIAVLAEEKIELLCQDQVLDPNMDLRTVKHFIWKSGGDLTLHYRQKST
UniProt Q8BPZ8: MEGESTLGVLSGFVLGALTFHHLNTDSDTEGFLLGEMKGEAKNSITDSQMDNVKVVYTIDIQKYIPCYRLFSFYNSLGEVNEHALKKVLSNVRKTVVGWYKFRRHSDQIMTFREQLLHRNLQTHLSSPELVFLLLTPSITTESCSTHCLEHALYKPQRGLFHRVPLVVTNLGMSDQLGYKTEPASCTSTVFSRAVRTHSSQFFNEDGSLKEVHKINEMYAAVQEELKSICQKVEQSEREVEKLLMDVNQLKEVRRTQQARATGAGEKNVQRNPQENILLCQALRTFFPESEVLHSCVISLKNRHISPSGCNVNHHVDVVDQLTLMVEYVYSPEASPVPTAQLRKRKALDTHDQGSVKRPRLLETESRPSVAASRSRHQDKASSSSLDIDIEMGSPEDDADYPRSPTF
UniProt Q8BHL8: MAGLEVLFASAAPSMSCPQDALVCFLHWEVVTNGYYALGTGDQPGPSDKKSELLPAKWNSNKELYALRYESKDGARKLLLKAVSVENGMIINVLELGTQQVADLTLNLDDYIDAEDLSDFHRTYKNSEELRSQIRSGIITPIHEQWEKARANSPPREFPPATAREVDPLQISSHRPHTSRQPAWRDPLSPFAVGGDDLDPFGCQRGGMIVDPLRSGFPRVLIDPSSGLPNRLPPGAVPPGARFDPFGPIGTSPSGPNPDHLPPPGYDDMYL
UniProt Q8BVF7, whole entry: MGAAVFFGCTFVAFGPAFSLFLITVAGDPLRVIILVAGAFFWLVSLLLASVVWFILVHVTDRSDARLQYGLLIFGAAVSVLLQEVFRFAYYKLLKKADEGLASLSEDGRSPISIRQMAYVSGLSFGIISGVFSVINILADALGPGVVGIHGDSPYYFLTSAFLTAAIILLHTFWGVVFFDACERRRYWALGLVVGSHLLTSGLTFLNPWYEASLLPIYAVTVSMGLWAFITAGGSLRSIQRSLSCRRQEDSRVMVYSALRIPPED
UniProt Q8CDJ8: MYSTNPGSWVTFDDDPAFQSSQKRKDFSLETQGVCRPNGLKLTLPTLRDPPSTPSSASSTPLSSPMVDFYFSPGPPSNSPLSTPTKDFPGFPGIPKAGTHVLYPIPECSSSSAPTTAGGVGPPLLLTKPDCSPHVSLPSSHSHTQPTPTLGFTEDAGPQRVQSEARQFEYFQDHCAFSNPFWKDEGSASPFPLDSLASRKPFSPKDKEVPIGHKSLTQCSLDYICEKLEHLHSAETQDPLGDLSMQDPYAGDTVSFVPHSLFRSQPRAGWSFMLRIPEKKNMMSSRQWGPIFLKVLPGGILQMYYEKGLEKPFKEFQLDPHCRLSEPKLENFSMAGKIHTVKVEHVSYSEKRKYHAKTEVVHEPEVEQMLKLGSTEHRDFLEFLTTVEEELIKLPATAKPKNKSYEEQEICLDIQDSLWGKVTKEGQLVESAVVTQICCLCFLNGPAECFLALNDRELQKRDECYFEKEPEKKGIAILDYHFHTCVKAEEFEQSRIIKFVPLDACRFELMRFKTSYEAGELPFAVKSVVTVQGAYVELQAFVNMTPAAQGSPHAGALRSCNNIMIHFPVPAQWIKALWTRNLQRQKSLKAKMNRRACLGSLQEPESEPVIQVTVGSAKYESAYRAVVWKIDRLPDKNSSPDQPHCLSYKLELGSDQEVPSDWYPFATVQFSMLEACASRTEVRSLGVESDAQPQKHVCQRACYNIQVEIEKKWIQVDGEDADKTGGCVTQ
UniProt Q8C4X7: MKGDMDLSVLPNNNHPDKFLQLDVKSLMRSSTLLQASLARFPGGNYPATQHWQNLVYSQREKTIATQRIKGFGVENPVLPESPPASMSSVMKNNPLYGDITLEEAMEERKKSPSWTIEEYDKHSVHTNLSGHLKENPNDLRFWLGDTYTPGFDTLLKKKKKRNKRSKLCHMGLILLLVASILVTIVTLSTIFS
UniProt Q8C1M2: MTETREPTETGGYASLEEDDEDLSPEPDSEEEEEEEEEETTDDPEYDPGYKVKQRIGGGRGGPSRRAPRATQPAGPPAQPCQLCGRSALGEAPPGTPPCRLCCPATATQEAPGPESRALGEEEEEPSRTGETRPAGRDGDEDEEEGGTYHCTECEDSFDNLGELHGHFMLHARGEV
UniProt Q8BN82: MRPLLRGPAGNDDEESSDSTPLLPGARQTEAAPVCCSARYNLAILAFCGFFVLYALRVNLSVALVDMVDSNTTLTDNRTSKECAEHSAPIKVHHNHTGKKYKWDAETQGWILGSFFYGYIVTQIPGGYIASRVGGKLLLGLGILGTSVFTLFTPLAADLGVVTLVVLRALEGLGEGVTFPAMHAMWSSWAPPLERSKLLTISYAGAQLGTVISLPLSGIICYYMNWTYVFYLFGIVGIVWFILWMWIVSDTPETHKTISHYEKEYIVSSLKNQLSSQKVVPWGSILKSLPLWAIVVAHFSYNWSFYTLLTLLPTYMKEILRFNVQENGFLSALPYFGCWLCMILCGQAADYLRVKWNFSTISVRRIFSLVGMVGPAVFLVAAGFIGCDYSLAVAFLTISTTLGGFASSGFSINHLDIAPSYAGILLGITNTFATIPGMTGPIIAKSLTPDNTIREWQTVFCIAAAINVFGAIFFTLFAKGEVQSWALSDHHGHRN
UniProt Q8BIW1: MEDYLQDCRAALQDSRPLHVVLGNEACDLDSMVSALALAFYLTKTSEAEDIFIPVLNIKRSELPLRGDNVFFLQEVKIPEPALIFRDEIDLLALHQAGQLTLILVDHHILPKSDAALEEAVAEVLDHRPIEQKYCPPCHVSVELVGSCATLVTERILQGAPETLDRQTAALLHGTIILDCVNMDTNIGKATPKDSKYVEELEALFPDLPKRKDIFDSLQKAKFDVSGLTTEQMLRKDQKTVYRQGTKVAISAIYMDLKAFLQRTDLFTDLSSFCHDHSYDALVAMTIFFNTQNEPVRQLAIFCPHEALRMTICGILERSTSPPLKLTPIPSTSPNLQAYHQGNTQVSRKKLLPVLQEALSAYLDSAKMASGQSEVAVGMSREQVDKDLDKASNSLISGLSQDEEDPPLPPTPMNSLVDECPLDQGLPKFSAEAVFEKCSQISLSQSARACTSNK
UniProt Q8C142: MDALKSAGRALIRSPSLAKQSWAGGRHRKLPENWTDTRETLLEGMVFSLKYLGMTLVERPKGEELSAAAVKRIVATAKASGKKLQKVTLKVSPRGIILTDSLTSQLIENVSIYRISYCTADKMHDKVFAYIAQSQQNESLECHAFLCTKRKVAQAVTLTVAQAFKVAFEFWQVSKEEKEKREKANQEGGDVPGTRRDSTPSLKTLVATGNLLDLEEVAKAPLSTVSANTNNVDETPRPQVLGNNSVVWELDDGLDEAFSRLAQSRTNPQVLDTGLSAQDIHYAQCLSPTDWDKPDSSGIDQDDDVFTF

These targets were tested with CN[C@@H]1C[C@H]2O[C@@](C)([C@@H]1OC)n1c3ccccc3c3c4c(c5c6ccccc6n2c5c31)C(=O)NC4 [staurosporine] (assay: log2 fold change of pooled soluble protein (PISA), ligand vs vehicle (log2 ratio); higher = more thermally stabilized). Conditions: ligand concentration: 20 uM; assay format: PISA pool 52.9/55.5/58.6 C.

Row | Target | log2 fold change of pooled soluble protein
1 | UniProt Q8C0I1 | 0.0483
2 | UniProt Q8BJW6 | 0.00974
3 | UniProt Q8BWW4 | -0.0532
4 | UniProt Q8BH86 | -0.0246
5 | UniProt Q8BTM8 | -0.0878
6 | UniProt Q8BWU8 | -0.183
7 | UniProt Q8BH51 | -0.0562
8 | UniProt Q8BU33 | 0.105
9 | UniProt Q8BXN7 | 0.0629
10 | UniProt Q8BSY0 | 0.0507
11 | UniProt Q8C129 | 0.0441
12 | UniProt Q8BZ09 | 0.0733
13 | UniProt Q8C729 | -0.387
14 | UniProt Q8BMS1 | -0.086
15 | UniProt Q8BH57 | -0.0966
16 | UniProt Q8BH43 | -0.0565
17 | UniProt Q8BK64 | -0.000719
18 | UniProt Q8CF02 | 0.0669

Row | Target | log2 fold change of pooled soluble protein
19 | UniProt Q8BPZ8 | -0.0261
20 | UniProt Q8BX70 | -0.018
21 | UniProt Q8BHL8 | 0.0753
22 | UniProt Q8BVF7 | -0.0559
23 | UniProt Q8CDJ8 | 0.0788
24 | UniProt Q8C878 | 0.0328
25 | UniProt Q8BWP5 | 0.0722
26 | UniProt Q8BL48 | 0.0316
27 | UniProt Q8BH00 | 0.0363
28 | UniProt Q8BT14 | -0.0592
29 | UniProt Q8C3X8 | 0.0817
30 | UniProt Q8C4X7 | 0.156
31 | UniProt Q8C1M2 | -0.0617
32 | UniProt Q8CGA3 | -0.151
33 | UniProt Q8BN82 | -0.218
34 | UniProt Q8BIW1 | -0.235
35 | UniProt Q8CGB6 | -0.0821
36 | UniProt Q8C142 | 0.217

Given as a markdown table: entries from further up.

| Row | Target | log2 fold change of pooled soluble protein |
| --- | --- | --- |
| 1 | UniProt Q8C0I1 | 0.0483 |
| 7 | UniProt Q8BH51 | -0.0562 |
